Experimental data as given in patent US11045465B2, “Methods and compositions to prevent addiction” (FLORIDA STATE UNIVERSITY RESEARCH FOUNDATION, INC., priority 2009, dated 2021).
Entries after “also recorded” stand apart in the source; their conditions may differ. For at least one compound, name, drawing or mass did not settle the structure.

Chains of the proteins cited; added tags and fusions are not shown.
UniProt P42866, whole entry: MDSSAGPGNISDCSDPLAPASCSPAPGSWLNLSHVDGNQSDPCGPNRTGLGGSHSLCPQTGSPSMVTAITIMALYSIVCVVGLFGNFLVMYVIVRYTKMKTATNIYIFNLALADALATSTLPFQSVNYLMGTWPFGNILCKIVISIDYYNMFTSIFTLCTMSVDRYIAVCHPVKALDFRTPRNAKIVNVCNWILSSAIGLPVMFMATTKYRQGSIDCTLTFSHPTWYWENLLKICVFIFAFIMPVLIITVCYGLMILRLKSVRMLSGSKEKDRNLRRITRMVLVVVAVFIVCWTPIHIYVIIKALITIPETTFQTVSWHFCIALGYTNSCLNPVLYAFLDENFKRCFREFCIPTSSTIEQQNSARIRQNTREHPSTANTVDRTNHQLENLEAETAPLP

What was measured:
[1] = tested on: Adult C57BL/6 mice; assay: Conditioned place preference (CPP); type: in vivo
Procedure: Photobeams wired to a computer can record animal location (time spent in the chamber). The central chamber has a smooth floor with gray color. Each preference chamber is either white with a mesh floor or black with a bar floor. The CPP procedure included three phases. (1) The pre-conditioning phase was performed on day 1 (two sessions daily, AM and PM). In each preconditioning session, mice were initially placed in the central gray chamber for 2 min and then allowed free access to the white and black chambers for 20 min. The time spent in each chamber was recorded. […] (2) The conditioning phase was carried out on each of days 2 to 6 [two sessions daily, AM and PM one each for vehicle-paired (saline as vehicle) and drug-paired (cocaine or MPH as drugs) sessions]. In the vehicle-paired session mice were injected with saline (i.p.) and placed in the central gray chamber for 2 min (to isolate injection effect to the central chamber) and then confined to the vehicle-paired chamber for 30 min. In the drug-paired session, the mice were given the drug in the central chamber, retained there for 2 min and then confined for 30 min in the drug-paired chamber. […] The time spent in each chamber was recorded. The difference between time spent in the drug-paired chamber during the test phase and pre-conditioning phases was calculated as the CPP score.

[2] = target: T1, μ opioid receptor (MOPR) (Mus musculus, UniProt P42866); assay: DAMGO-stimulated [35S]GTPγS binding (MOPR activity) in caudate-putamen and nucleus accumbens membranes of drug-treated mice from the CPP assay; type: in vivo; settings: cocaine 10 mg/kg i.p., 10 μM DAMGO
T1 construct: The caudate-putamen and nucleus accumbens were microdissected and the tissue was homogenized; from tissue; host or cells: mouse brain: caudate-putamen and nucleus accumbens membrane preparations
Procedure: MOPR activity was assayed by using [^35S]GTPγS binding on membrane preparations using a modification of the previously described method^23. The mice were sacrificed by cervical dislocation and the brain was dissected rapidly. The caudate-putamen and nucleus accumbens were microdissected and the tissue was homogenized using teflon pistol in Eppendorf tubes (10 strokes) in 300 μl of homogenization buffer containing 25 mM Tris/pH7.4, 5 mM EDTA and 0.1 mM PMSF and kept on ice. Homogenate was diluted to 2.5 ml using the homogenization buffer and centrifuged at ˜350,000 g for 30 min. After washing 3 times with 50 mM Tris-HCl/pH7.4, the pellets were re-suspended in 50 mM Tris-HCl/pH7.4 containing 0.32 M sucrose, passed through a 26.5 G needle for 3 times, frozen in dry ice/ethanol and stored in −80° C. until use. […] Bound and free [^35S]GTPγS were separated by filtration with GF/B filters under reduced pressure. Radioactivity on filters was determined by liquid scintillation counting. Nonspecific binding was subtracted from total stimulated and basal binding. […] MOPR activity was reported as % of baseline (unstimulated) activity: [Disintegrations per minute (DPM) with agonist stimulated binding−DPM of nonspecific binding)/(DPM basal (without agonist)−DPM nonspecific)×100. Protein content of membranes was determined by the BCA method of^24 with bovine serum albumin as the standard.

## CN1CCc2cc(Cl)c(O)cc2[C@@H](c2ccccc2)C1 [Schering 23390]
[1]; MPH 7.5 mg/kg + Schering 23390
  CPP score compared to the MPH only group: significantly lower CPP score
  CPP score compared to the saline group: no statistically significant difference
[1]; Schering 23390 0.2 mg/kg 10 min prior to MPH 7.5 mg/kg
  development of MPH-induced CPP: prevented development of CPP; also recorded: can block

## COC(=O)[C@H]1[C@@H](OC(=O)c2ccccc2)C[C@@H]2CC[C@H]1N2C [cocaine]
[1]; cocaine 10 mg/kg i.p.
  CPP score compared to the saline and low dose MPH groups: significantly higher CPP scores
[1]; cocaine 10 mg/kg i.p., positive control
  place preference: time spent in the drug-paired chamber, test vs pre-conditioning sessions: showed significant place preference; also recorded: spent significantly longer period of time in the drug-paired chamber
[2]
  MOPR activity (DAMGO-stimulated [35S]GTPγS binding) compared to saline: significantly greater; also recorded: significantly higher MOPR activity
